In patent US20240350660A1, “Compositions and Methods for Increasing Bioavailability Using Cyclodextrin Modification” (priority 2021, published 2024):
At least one compound was matched to its structure with a doubt left.

System: SARS-COV-2
Assay: SARS-COV-2 replication in Vero E6 cells in vitro (viral load by RT-PCR)
Type: cell-based
Conditions: FIG. 4; 1, 10 and 100 mg/ml treatment concentrations

C[C@@H]1O[C@@H](OC[C@H]2O[C@@H](Oc3c(-c4ccc(O)c(O)c4)oc4cc(O)cc(O)c4c3=O)[C@H](O)[C@@H](O)[C@@H]2O)[C@H](O)[C@H](O)[C@H]1O [rutin] was tested, and the “Inhibition of SARS-COV-2 replication in vitro (in words)” value was “inhibited SARS-COV-2 replication in vitro at all concentrations tested”.
